PubChem BioAssay AID1508597 – Cure First – 2020

Screen: 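Genes whose silencing sensitises or protects ovarian cancer cells against rucaparib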 (primary screen)
Cell system: human ovarian carcinoma lines grown from tumours: OCI-P5x (papillary serous) and OCI-C5x (clear cell)
Reagent: siRNA pool against human genes, 1.25 pmol siRNA per well
Time to read-out: 72 h or 96 h, depending on the cell culture
Conditions: rucaparib 20 µM (about IC30) or vehicle, present until read-out
Rucaparib or vehicle: Vehicle
Cell line: OCI-C5x (clear cell)
Measurement: 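ATP luminescence measured at 72 or 96 h according to the culture, then normalised and expressed as percent viability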
Reading the numbers: viability, normalised: higher = more viable cells remaining
Call rule: 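a well counts as a hit if its normalised viability is under 80 percent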
Meaning of the calls: active = viability under 80%; inactive = viability 80% or more
Shown is an unselected part of the about 2,100 reagents, under one of the conditions tested. 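Calls flag viability under 80% in either arm, not effects specific to rucaparib; the reference for percent is not stated.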 Not given: the 100% reference.

Target gene | PubChem SID | technical replicate | viability, normalised (%) | Outcome
CLOCK (clock circadian regulator) | SID405528143 | 1 | 37.8 | active
CLOCK (clock circadian regulator) | SID405528143 | 2 | 57.2 | active
CLOCK (clock circadian regulator) | SID405528143 | 3 | 51.6 | active
CDK9 (cyclin dependent kinase 9) | SID405528591 | 1 | 49 | active
CDK9 (cyclin dependent kinase 9) | SID405528591 | 2 | 39 | active
CDK9 (cyclin dependent kinase 9) | SID405528591 | 3 | 40.9 | active
PIP5K1C (phosphatidylinositol-4-phosphate 5-kinase type 1 gamma) | SID405527659 | 1 | 69.8 | active
PIP5K1C (phosphatidylinositol-4-phosphate 5-kinase type 1 gamma) | SID405527659 | 2 | 42.3 | active
PIP5K1C (phosphatidylinositol-4-phosphate 5-kinase type 1 gamma) | SID405527659 | 3 | 41.6 | active
MYSM1 (Myb like, SWIRM and MPN domains 1) | SID405527050 | 1 | 36.8 | active
MYSM1 (Myb like, SWIRM and MPN domains 1) | SID405527050 | 2 | 32.6 | active
MYSM1 (Myb like, SWIRM and MPN domains 1) | SID405527050 | 3 | 40.9 | active
PRKG2 (protein kinase cGMP-dependent 2) | SID405527572 | 1 | 70 | active
PRKG2 (protein kinase cGMP-dependent 2) | SID405527572 | 2 | 64.1 | active
PRKG2 (protein kinase cGMP-dependent 2) | SID405527572 | 3 | 80.3 | inactive
THOC1 (THO complex subunit 1) | SID405528474 | 1 | 43.9 | active
THOC1 (THO complex subunit 1) | SID405528474 | 2 | 68 | active
THOC1 (THO complex subunit 1) | SID405528474 | 3 | 56.8 | active
NME2 (NME/NM23 nucleoside diphosphate kinase 2) | SID405527078 | 1 | 31.7 | active
NME2 (NME/NM23 nucleoside diphosphate kinase 2) | SID405527078 | 2 | 33.7 | active
NME2 (NME/NM23 nucleoside diphosphate kinase 2) | SID405527078 | 3 | 41.9 | active
SREBF1 (sterol regulatory element binding transcription factor 1) | SID405526498 | 1 | 29.6 | active
SREBF1 (sterol regulatory element binding transcription factor 1) | SID405526498 | 2 | 61.1 | active
SREBF1 (sterol regulatory element binding transcription factor 1) | SID405526498 | 3 | 44.7 | active
MRI1 (methylthioribose-1-phosphate isomerase 1) | SID405526370 | 1 | 61.9 | active
MRI1 (methylthioribose-1-phosphate isomerase 1) | SID405526370 | 2 | 43.8 | active
MRI1 (methylthioribose-1-phosphate isomerase 1) | SID405526370 | 3 | 60.7 | active
FOXA2 (forkhead box A2) | SID405526793 | 1 | 21.4 | active
FOXA2 (forkhead box A2) | SID405526793 | 2 | 25.4 | active
FOXA2 (forkhead box A2) | SID405526793 | 3 | 27.2 | active
RAD51AP1 (RAD51 associated protein 1) | SID405528457 | 1 | 62.2 | active
RAD51AP1 (RAD51 associated protein 1) | SID405528457 | 2 | 51.5 | active
RAD51AP1 (RAD51 associated protein 1) | SID405528457 | 3 | 52.3 | active
BTAF1 (B-TFIID TATA-box binding protein associated factor 1) | SID405528053 | 1 | 50 | active
BTAF1 (B-TFIID TATA-box binding protein associated factor 1) | SID405528053 | 2 | 28.9 | active
BTAF1 (B-TFIID TATA-box binding protein associated factor 1) | SID405528053 | 3 | 28.7 | active
SUZ12 (SUZ12 polycomb repressive complex 2 subunit) | SID405526515 | 1 | 64 | active
SUZ12 (SUZ12 polycomb repressive complex 2 subunit) | SID405526515 | 2 | 84.3 | inactive
SUZ12 (SUZ12 polycomb repressive complex 2 subunit) | SID405526515 | 3 | 53.9 | active

Entries listed so far whose gene name starts with F or f (3):
Target gene | PubChem SID | technical replicate | viability, normalised (%) | Outcome
FOXA2 (forkhead box A2) | SID405526793 | 1 | 21.4 | active
FOXA2 (forkhead box A2) | SID405526793 | 2 | 25.4 | active
FOXA2 (forkhead box A2) | SID405526793 | 3 | 27.2 | active
